Laboratory results: PubChem BioAssay AID743454 (Peter MacCallum Cancer Centre, 2014)
Shown is one part, drawn at random, of about 18,000 deposited reagents. 450 of all reagents (2.5%) count as active. 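Single biological run; no consistent viability z cut-off exists, so the class columns, not z-scores, define the calls.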 Reagent sequences are not shown.

Assay: 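Search for knock-downs that restore vorinostat killing in resistant colon cancer cells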 (primary screen)
Cell system: human HCT116-VR colon cancer cells, selected for vorinostat resistance
Reagent: siRNA pool against human genes, 40 nM siRNA pool
Timing: vorinostat for 24 h, read-out about 72 h after transfection
Treatment: vorinostat at 2.5 µM final
Detection: 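Cell viability by CellTiter-Fluor and caspase 3/7 activity by luminescence, each scaled to mock wells per plate, duplicates averaged, then robust z-scored over all plates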
Scale: viability robust z-score: higher = more viable cells than screen typical; caspase robust z-score: higher = more caspase 3/7 activity than screen typical
Hit rule: 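a knock-down is a hit when classed RV1 or RV2 for lowered viability, or CA1 or CA2 for caspase activation; those lethal without drug were dropped; hits were retested singly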

gene | viability hit class | caspase hit class | viability robust z-score | caspase robust z-score | Outcome
CNTNAP1 (GeneID 8506) | no change | no change | -0.77 | 0.92 | inactive
ANGPTL6 (GeneID 83854) | no change | no change | 0.38 | -0.53 | inactive
VPS13D (GeneID 55187) | no change | no change | 0.81 | 0.42 | inactive
GNAI3 (GeneID 2773) | no change | no change | 0.89 | 0.77 | inactive
SPATS2 (GeneID 65244) | no change | no change | 1.44 | -0.45 | inactive
KANK2 (GeneID 25959) | no change | no change | 1.57 | -0.63 | inactive
CMC1 (GeneID 152100) | no change | no change | -1 | 4.17 | inactive
PDE6B (GeneID 5158) | no change | no change | -0.26 | -0.94 | inactive
CT47A9 (GeneID 728042) | no change | no change | 1.23 | 1.64 | inactive
CLCN4 (GeneID 1183) | no change | no change | 0.34 | -0.19 | inactive
IL38 (GeneID 84639) | no change | no change | -0.24 | -0.6 | inactive
TIMM8A (GeneID 1678) | no change | no change | 0.54 | -0.06 | inactive
SLC25A33 (GeneID 84275) | no change | no change | -0.08 | 0.01 | inactive
SF3B1 (GeneID 23451) | no change | no change | -4.85 | 0.43 | inactive
KGD4 (GeneID 92259) | no change | no change | -0.5 | -0.5 | inactive
SLCO3A1 (GeneID 28232) | no change | no change | -0.3 | 1.72 | inactive
DHDH (GeneID 27294) | RV2 (reduced viability) | no change | -3.15 | 1.25 | active
MIDN (GeneID 90007) | no change | no change | -0.94 | -0.28 | inactive
ANKRD33 (GeneID 341405) | no change | no change | 0.19 | -0.24 | inactive
AQP5 (GeneID 362) | no change | no change | 0.91 | 0.24 | inactive

Active calls (from the list above):
gene | viability hit class | caspase hit class | viability robust z-score | caspase robust z-score | Outcome
DHDH (GeneID 27294) | RV2 (reduced viability) | no change | -3.15 | 1.25 | active

Next entries:
gene | viability hit class | caspase hit class | viability robust z-score | caspase robust z-score | Outcome
RNF175 (GeneID 285533) | no change | no change | 0.16 | -0.8 | inactive
RSKR (GeneID 124923) | no change | no change | -0.74 | 1.01 | inactive
GIMAP1 (GeneID 170575) | no change | no change | -0.01 | 0.3 | inactive
DIPK2B (GeneID 79742) | no change | no change | -0.47 | -0.84 | inactive
ZNF235 (GeneID 9310) | no change | no change | -0.77 | -0.52 | inactive
BBOX1 (GeneID 8424) | no change | no change | 1.32 | -0.17 | inactive
CAMTA1 (GeneID 23261) | no change | no change | -0.37 | 1.26 | inactive
SRPK1 (GeneID 6732) | no change | no change | -1.36 | 0.04 | inactive
TBC1D5 (GeneID 9779) | no change | no change | -0.75 | -1.22 | inactive
TMEM244 (GeneID 253582) | no change | no change | 0.95 | -0.74 | inactive
DHX9 (GeneID 1660) | no change | no change | 0.8 | -1.16 | inactive
LAG3 (GeneID 3902) | no change | CA2 (caspase activation) | -1.44 | 5.81 | active
FRZB (GeneID 2487) | no change | no change | -0.22 | 1.11 | inactive
RSPH10B (GeneID 222967) | no change | no change | 0.64 | -0.14 | inactive
TDRD9 (GeneID 122402) | no change | no change | 0.59 | -0.26 | inactive
PSMC3IP (GeneID 29893) | no change | no change | -0.05 | -0.58 | inactive
ACD (GeneID 65057) | no change | no change | 0.24 | -0.17 | inactive
B4GALNT3 (GeneID 283358) | no change | no change | 0.28 | -0.89 | inactive
COG3 (GeneID 83548) | no change | no change | 0.94 | -0.1 | inactive
